Values from PubChem BioAssay AID1508597 (Cure First, 2020).
This is a random part of the about 2,100 reagents, in one setting of the screen. 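Calls flag viability under 80% in either arm, not effects specific to rucaparib; the reference for percent is not stated.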 Unmarked entries are inactive. Reagents against one gene are numbered here. Some reagents were tested in more than one well and are listed for each. Not stated in the record: the 100% reference.

- Screen: 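Survival screen with siRNA in ovarian cancer cells derived from patients, with or without rucaparib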 (primary screen)
- Cells: human ovarian carcinoma lines grown from tumours: OCI-P5x (papillary serous) and OCI-C5x (clear cell)
- Reagent: siRNA pool against human genes, 1.25 pmol siRNA per well
- Timing: 72 h or 96 h, depending on the cell culture
- Conditions: rucaparib 20 µM (about IC30) or vehicle, present until read-out
- Rucaparib or vehicle: Vehicle
- Cell line: OCI-C5x (clear cell)
- Read-out: 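ATP luminescence measured at 72 or 96 h according to the culture, then normalised and expressed as percent viability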
- Direction: viability, normalised: higher = more viable cells remaining
- Rule for the call: 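Active when normalised viability falls below 80 percent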
- Calls: active = viability under 80%; inactive = viability 80% or more

gene knocked down | reagent no. | technical replicate | viability, normalised (%)
CSMD3 (CUB and Sushi multiple domains 3) | 1 | 1 | 71.5 (active)
CSMD3 (CUB and Sushi multiple domains 3) | 1 | 2 | 64.7 (active)
CSMD3 (CUB and Sushi multiple domains 3) | 1 | 3 | 65.1 (active)
ENPP3 (ectonucleotide pyrophosphatase/phosphodiesterase 3) | 1 | 1 | 48.8 (active)
ENPP3 (ectonucleotide pyrophosphatase/phosphodiesterase 3) | 1 | 2 | 56 (active)
ENPP3 (ectonucleotide pyrophosphatase/phosphodiesterase 3) | 1 | 3 | 44 (active)
MED27 (mediator complex subunit 27) | 1 | 1 | 50.8 (active)
MED27 (mediator complex subunit 27) | 1 | 2 | 36.5 (active)
MED27 (mediator complex subunit 27) | 1 | 3 | 73.5 (active)
HECTD3 (HECT domain E3 ubiquitin protein ligase 3) | 1 | 1 | 60.6 (active)
HECTD3 (HECT domain E3 ubiquitin protein ligase 3) | 1 | 2 | 73.9 (active)
HECTD3 (HECT domain E3 ubiquitin protein ligase 3) | 1 | 3 | 66 (active)
PLCH1 (phospholipase C eta 1) | 1 | 1 | 67.1 (active)
PLCH1 (phospholipase C eta 1) | 1 | 2 | 74.8 (active)
PLCH1 (phospholipase C eta 1) | 1 | 3 | 73.8 (active)
NME9 (NME/NM23 family member 9) | 1 | 1 | 55.9 (active)
NME9 (NME/NM23 family member 9) | 1 | 2 | 48.1 (active)
NME9 (NME/NM23 family member 9) | 1 | 3 | 43 (active)
NME9 (NME/NM23 family member 9) | 2 | 1 | 45.6 (active)
NME9 (NME/NM23 family member 9) | 2 | 2 | 47.4 (active)
NME9 (NME/NM23 family member 9) | 2 | 3 | 47.2 (active)
AURKC (aurora kinase C) | 1 | 1 | 39.2 (active)
AURKC (aurora kinase C) | 1 | 1 | 61 (active)
AURKC (aurora kinase C) | 1 | 2 | 72.9 (active)
AURKC (aurora kinase C) | 1 | 2 | 32.6 (active)
AURKC (aurora kinase C) | 1 | 3 | 67 (active)
AURKC (aurora kinase C) | 1 | 3 | 53.5 (active)
ABL1 (ABL proto-oncogene 1, non-receptor tyrosine kinase) | 1 | 1 | 42.5 (active)
ABL1 (ABL proto-oncogene 1, non-receptor tyrosine kinase) | 1 | 1 | 53.4 (active)
ABL1 (ABL proto-oncogene 1, non-receptor tyrosine kinase) | 1 | 2 | 65.3 (active)
ABL1 (ABL proto-oncogene 1, non-receptor tyrosine kinase) | 1 | 2 | 55 (active)
ABL1 (ABL proto-oncogene 1, non-receptor tyrosine kinase) | 1 | 3 | 58.4 (active)
ABL1 (ABL proto-oncogene 1, non-receptor tyrosine kinase) | 1 | 3 | 36.6 (active)
PHF1 (PHD finger protein 1) | 1 | 1 | 39.6 (active)
PHF1 (PHD finger protein 1) | 1 | 2 | 36.3 (active)
PHF1 (PHD finger protein 1) | 1 | 3 | 43.7 (active)
NDC80 (NDC80 kinetochore complex component) | 1 | 1 | 55.5 (active)
NDC80 (NDC80 kinetochore complex component) | 1 | 2 | 46.5 (active)
NDC80 (NDC80 kinetochore complex component) | 1 | 3 | 34.1 (active)
PARP6 (poly(ADP-ribose) polymerase family member 6) | 1 | 1 | 28.8 (active)
PARP6 (poly(ADP-ribose) polymerase family member 6) | 1 | 2 | 20.4 (active)
PARP6 (poly(ADP-ribose) polymerase family member 6) | 1 | 3 | 27.4 (active)
ULK4 (unc-51 like kinase 4) | 1 | 1 | 47.2 (active)
ULK4 (unc-51 like kinase 4) | 1 | 2 | 48.6 (active)
ULK4 (unc-51 like kinase 4) | 1 | 3 | 42.7 (active)
TAF8 (TATA-box binding protein associated factor 8) | 1 | 1 | 43 (active)
TAF8 (TATA-box binding protein associated factor 8) | 1 | 2 | 42 (active)
TAF8 (TATA-box binding protein associated factor 8) | 1 | 3 | 35.9 (active)

A few values from the entries so far.
Value for ULK4 (unc-51 like kinase 4), technical replicate 3 in “viability, normalised (%)”: 42.7 (active)
Under “viability, normalised (%)”, CSMD3 (CUB and Sushi multiple domains 3), technical replicate 2 shows 64.7 (active)
Value of CSMD3 (CUB and Sushi multiple domains 3), technical replicate 3 in “viability, normalised (%)”: 65.1 (active)
Result for NDC80 (NDC80 kinetochore complex component), technical replicate 3 under “viability, normalised (%)”: 34.1 (active)

More reagents follow:
gene knocked down | reagent no. | technical replicate | viability, normalised (%)
MYBL2 (MYB proto-oncogene like 2) | 1 | 1 | 42.9 (active)
MYBL2 (MYB proto-oncogene like 2) | 1 | 2 | 40.4 (active)
MYBL2 (MYB proto-oncogene like 2) | 1 | 3 | 58.9 (active)
DTYMK (deoxythymidylate kinase) | 1 | 1 | 47.6 (active)
DTYMK (deoxythymidylate kinase) | 1 | 2 | 52.4 (active)
DTYMK (deoxythymidylate kinase) | 1 | 3 | 34.3 (active)
ESPL1 (extra spindle pole bodies like 1, separase) | 1 | 1 | 54.4 (active)
ESPL1 (extra spindle pole bodies like 1, separase) | 1 | 2 | 72.2 (active)
ESPL1 (extra spindle pole bodies like 1, separase) | 1 | 3 | 55.3 (active)
RPH3A (rabphilin 3A) | 1 | 1 | 42.7 (active)
RPH3A (rabphilin 3A) | 1 | 2 | 28.6 (active)
RPH3A (rabphilin 3A) | 1 | 3 | 40.8 (active)
PRPS1L1 (phosphoribosyl pyrophosphate synthetase 1 like 1) | 1 | 1 | 71.4 (active)
PRPS1L1 (phosphoribosyl pyrophosphate synthetase 1 like 1) | 1 | 2 | 55.5 (active)
PRPS1L1 (phosphoribosyl pyrophosphate synthetase 1 like 1) | 1 | 3 | 53.9 (active)
NODAL (nodal growth differentiation factor) | 1 | 1 | 62.2 (active)
NODAL (nodal growth differentiation factor) | 1 | 2 | 37.4 (active)
NODAL (nodal growth differentiation factor) | 1 | 3 | 51.7 (active)
PDE4C (phosphodiesterase 4C) | 1 | 1 | 68 (active)
PDE4C (phosphodiesterase 4C) | 1 | 2 | 51.9 (active)
PDE4C (phosphodiesterase 4C) | 1 | 3 | 51.3 (active)
STK4 (serine/threonine kinase 4) | 1 | 1 | 52.1 (active)
STK4 (serine/threonine kinase 4) | 1 | 2 | 59.8 (active)
STK4 (serine/threonine kinase 4) | 1 | 3 | 73.5 (active)
SMARCA5 (SNF2 related chromatin remodeling ATPase 5) | 1 | 1 | 60.7 (active)
SMARCA5 (SNF2 related chromatin remodeling ATPase 5) | 1 | 2 | 51 (active)
SMARCA5 (SNF2 related chromatin remodeling ATPase 5) | 1 | 3 | 53.2 (active)
